Results: PMC10827748
No constants are given. Whether binding was seen depends on the method and setting. In cells and extracts the contact can be indirect. Some entries that bind do so weakly or less than the wild type.

Molecular target: T1, UBA6 in cell lysates (co-immunoprecipitation with the UBL domain) (UniProt A0AVT1)
T1 sequence: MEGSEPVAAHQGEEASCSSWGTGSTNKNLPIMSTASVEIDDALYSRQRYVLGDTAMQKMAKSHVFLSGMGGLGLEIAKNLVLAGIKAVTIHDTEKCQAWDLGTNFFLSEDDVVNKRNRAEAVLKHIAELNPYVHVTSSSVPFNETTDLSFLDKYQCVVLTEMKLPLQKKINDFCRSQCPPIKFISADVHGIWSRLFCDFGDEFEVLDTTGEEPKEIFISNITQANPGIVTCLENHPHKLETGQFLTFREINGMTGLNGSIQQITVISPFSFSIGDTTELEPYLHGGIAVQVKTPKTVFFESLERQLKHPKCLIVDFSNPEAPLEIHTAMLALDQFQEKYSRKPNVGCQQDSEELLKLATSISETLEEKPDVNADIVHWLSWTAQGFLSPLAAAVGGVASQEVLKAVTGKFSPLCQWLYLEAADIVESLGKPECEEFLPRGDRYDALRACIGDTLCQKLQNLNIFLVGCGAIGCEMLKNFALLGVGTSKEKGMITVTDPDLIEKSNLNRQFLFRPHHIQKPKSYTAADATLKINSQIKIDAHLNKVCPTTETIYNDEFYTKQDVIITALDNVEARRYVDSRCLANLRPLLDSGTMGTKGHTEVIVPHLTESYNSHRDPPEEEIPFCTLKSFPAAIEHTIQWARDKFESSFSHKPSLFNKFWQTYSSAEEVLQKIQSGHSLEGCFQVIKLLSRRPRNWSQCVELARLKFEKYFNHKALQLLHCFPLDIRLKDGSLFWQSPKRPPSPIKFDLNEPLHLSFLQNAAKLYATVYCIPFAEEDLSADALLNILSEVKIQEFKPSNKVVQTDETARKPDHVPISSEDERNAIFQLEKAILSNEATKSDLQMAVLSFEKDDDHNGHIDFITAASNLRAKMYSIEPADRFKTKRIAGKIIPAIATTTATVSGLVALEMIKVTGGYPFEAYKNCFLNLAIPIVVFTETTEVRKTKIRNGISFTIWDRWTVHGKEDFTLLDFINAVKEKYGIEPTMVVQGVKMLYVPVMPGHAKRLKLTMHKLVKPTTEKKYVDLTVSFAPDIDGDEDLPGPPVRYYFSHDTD
Test: co-IP; transfected UBL domain of BIRC6 and UBA6 from cell lysates

B1: UBL domain of BIRC6, transfected (domain or fragment, UniProt O88738 3842-4092)
chain: DEKVTMFLQSPCPLYKGRINATSHVIQHPMFGAGHKFRTLHLPVSTTLSDVLDRVSDTPSITAKLISEQKDDKEKKNHEEKEKVKAENGFQDNYSVVVASGLKSQSKRAMASTPPRPPSRRGRTIPDKIGSASSSADAASKIITVPVFHLFHRLLAGQPLPAEMTLAQLLTLLYDRKLPQGYRSIDLTVKLGSKVITDPSLSKTDSFKRLHPEKDHGDLVGSCPEDEALTPSDECMDGVLDESLLETCPIQ
**Q.** B1 was tested. Which binding did it give?
**A.** The binding was “binds”.
